# From PubChem BioAssay AID602313 (National Center for Advancing Translational Sciences (NCATS), 2012)
# Values joined by “and” are separate entries in the source; they are usually repeats but may differ in a detail not shown here. Identical values can stand only once. Screen size: about 390,000 compounds; about 760 (0.19%) were called active. Inconclusive means that the source gave no clear call. Such entries were picked first, then a sample of the others. Calls come from the whole dose curve; as a rule, active = well fitted inhibition curve with a large enough effect; inconclusive = small, poorly fitted or top-dose-only effect; inactive = flat fitted curve, though single readings scatter. Potencies beside an inconclusive call are fits to weak or partial responses and may not hold up.
# Assay: qHTS for Inhibitors of Vif-A3F Interactions: qHTS; note: nearly all actives have a fitted effect of over 65% in size; for activity, negative = active: % of control where 0% means no effect
# Details: HeLa A3F-eYFP + Vif (tagged APOBEC3F with the HIV-1 protein that degrades it), YFP fluorescence increase; series mostly up to 46.1 µM; activity, negative = active: at the top concentration
# Procedure, shortened: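 HeLa cells stably expressing A3F-eYFP plus Vif, plated and incubated overnight at 37 deg C, then exposed to compounds overnight at 37 deg C. Blocked degradation read as raised yellow fluorescence (Ex 488/Em 500-530).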
# Potency is the fitted concentration of half-maximal effect.
Compound,Potency,"activity, negative = active"
Cc1cccc(NC2(C(=O)O)CCCC2)c1,"inconclusive: 3.55 µM [inhibitor, partial curve, poor fit]",
O=S(=O)(Nc1ccc(-n2cnnn2)cc1)c1ccc(Cl)s1,"inconclusive: 3.55 µM [inhibitor, single point]",
CCCc1nc(SC)[nH]c(=O)c1C,"inconclusive: 1.12 µM [inhibitor, partial curve, poor fit]",
ON=C1c2cc(OCCN3CCCCC3)ccc2-c2ccc(OCCN3CCCCC3)cc21,"inconclusive: 11.2 µM [inhibitor, partial curve, poor fit]",
CC(C)(C)NC(=O)NC(=O)COC(=O)c1ccc(OC(F)(F)F)cc1,"inconclusive: 35.5 µM [inhibitor, single point]",
CN(C)NC(=S)NC1CC2CCC1C2 (stereo not drawn),"inconclusive: 35.5 µM [inhibitor, single point]",
CCCc1cc(-n2ccnc2)n2c(nc3ccccc32)c1C#N,"inconclusive: 11.2 µM [inhibitor, partial curve, poor fit]",
Cc1ccc(-n2cc(CNC(C)c3cnn(C)c3)c(-c3ccc(F)cc3)n2)cc1 (stereo not drawn),,inactive: 0.39%
COc1ccc(N2CCN(C(=S)NCc3ccccc3)CC2)cc1,"inconclusive: 20 µM [inhibitor, single point]",
CCNC(=S)N/N=C(\C)c1ccc(N2CCOCC2)cc1,active: 22.4 µM,
CCOC(=O)C1(CCOC)CCN(Cc2ccccc2-c2ccco2)CC1,"inconclusive: 35.5 µM [inhibitor, single point]",
CC(=O)c1ccc2cccc3c2c1N=CN3C,"inconclusive: 22.4 µM [inhibitor, partial curve, poor fit]",
COCCN(C(=S)Nc1cc(C)cc(C)c1)C(C)c1ccco1 (stereo not drawn),"inconclusive: 20 µM [inhibitor, single point]",
CC(=O)Nc1ccc(S(=O)(=O)Nc2nc3ccccc3nc2Sc2nncn2C)cc1,active: 10 µM,
COCCNC(=S)N/N=C(\C)c1cccc([N+](=O)[O-])c1,"inconclusive: 35.5 µM [inhibitor, single point]",
N#CC1=C(N)N2C(=C(C#N)C1c1ccc(Br)cc1)Nc1ccccc12 (stereo not drawn),"inconclusive: 17.8 µM [inhibitor, single point]",
C=CCC[C@@H](Cc1ccc(F)cc1)C(=O)OC[C@@H](NC(=O)[C@H](CC=C)CC(=O)N(CCO)Cc1ccccc1)c1ccccc1,,inactive: 4.18%
Cc1ccc(N/C=C/C(=O)c2sc(-c3ccccc3)nc2C)cc1,"inconclusive: 35.5 µM [inhibitor, single point]",
N#Cc1cc(-c2ccccc2)nc(NN)n1,,inactive: 11.9%
Cc1ccccc1Cn1cc(S(=O)(=O)c2ccc(F)cc2)c(=O)c2cc3c(cc21)OCO3,,inactive: 1.63%
Cc1sc2ncnc(SCC(=O)NC(C)(C)C)c2c1C,"inconclusive: 10 µM [inhibitor, partial curve]",
COC(=O)c1ccc2c(c1)N(CC(=O)Nc1ccc(C)cc1Cl)C(=O)c1ccccc1S2,"inconclusive: 11.2 µM [inhibitor, partial curve, poor fit]",
CCc1ccc(C(=O)/C=C/c2ccc([N+](=O)[O-])o2)cc1,"inconclusive: 35.5 µM [inhibitor, single point]",

Compound,Potency,"activity, negative = active"
COc1cccc2c3cccc(OC)c3c3[nH]cnc3c12,,inactive: 1.94%
CCCOc1ccc(/C=C2\SC(=S)N(CC3CCCO3)C2=O)cc1 (stereo not drawn),,inactive: -9.92%
O=C1COc2ccc(C(=O)CSc3nc4ccccc4c(=O)n3-c3ccc(Cl)c(Cl)c3)cc2N1,active: 10 µM,
N#Cc1c(-c2ccccc2)nc(SCc2nc(N)nc(N3CCCCC3)n2)[nH]c1=O,,inactive: -3.44%
Cc1cccc(C(=O)Nc2ccccc2SCC(=O)Nc2ccc(C)c(Cl)c2)c1,,inactive: -9.11%
COc1cc(-c2nc3ccccn3c2/N=C/c2cc(OC)c(O)cc2Cl)ccc1O,"inconclusive: 35.5 µM [inhibitor, single point]",
COc1ccc(CN(CCC(c2ccc(F)cc2)C2CCOC(C)(C)C2)C(=O)c2ccco2)cc1 (stereo not drawn),,inactive: 5.15%
Cc1ccc(-c2noc(CCC(=O)Nc3ccccc3C)n2)cc1,"inconclusive: 35.5 µM [inhibitor, single point]",
O=C(CCCC1=NS(=O)(=O)c2ccccc2N1)N1CCN(c2ccc([N+](=O)[O-])cc2)CC1,"inconclusive: 35.5 µM [inhibitor, single point]",
O=C(Oc1ccc(Br)cc1C(=S)N1CCCC1)c1ccccc1F,,inactive: -0.281%
Cc1cccc(NC(=O)/C(C#N)=C\c2ccc(C(=O)O)cc2)c1,,inactive: 0.818%
COc1ccc(OC)c(N(C(=O)c2ccco2)C(C(=O)NC2CCCC2)c2ccc(N3CCOCC3)cc2)c1 (stereo not drawn),,inactive: -7.19%
O=c1c2ccccc2nc(COc2ccccc2)n1/N=C/c1c[nH]c2ccccc12,"inconclusive: 17.8 µM [inhibitor, partial curve, poor fit]",
COC(=O)c1ccc(Cn2nc(-c3ccccc3)ccc2=O)cc1,"inconclusive: 35.5 µM [inhibitor, single point]",
COc1ccc([N+](=O)[O-])cc1NC(=O)C(C)OC(=O)CN1C(=O)C2CC=CCC2C1=O (stereo not drawn),,inactive: 0.83%
N#CC(=Cc1ccccn1)c1nc(-c2ccc(Cl)cc2)cs1,"inconclusive: 2.82 µM [inhibitor, partial curve, poor fit]",
CCN1CCC(O)(/C=C/c2ccc(C(C)C)cc2)C(C(=O)/C=C/c2ccc(C(C)C)cc2)C1 (stereo not drawn),,inactive: 9.53%
C/C(=N\NC(=S)NC(C)C)c1ccc(C(C)(C)C)cc1,"inconclusive: 8.91 µM [inhibitor, partial curve]",
CC(C)CC(=NNC(=O)c1ccncc1)c1cc(Cl)ccc1O,"inconclusive: 20 µM [inhibitor, partial curve, poor fit]",
COc1ccc(NC(=O)c2cc3c(CO)cnc(C)c3oc2=Nc2cc(OC)cc(OC)c2)cc1,"inconclusive: 25.1 µM [inhibitor, single point]",
CCN(CC(=O)Nc1ccc(S(=O)(=O)N2CCCCC2)cc1)Cc1ccccc1,"inconclusive: 22.4 µM [inhibitor, partial curve, poor fit]",
O=C(/C=C/c1ccco1)Nc1scc(-c2ccccc2)c1C(=O)O,,inactive: 0.981%
C=CCN1C(=O)/C(=C2/Sc3ccc(OC)cc3N2CC)SC1=S,"inconclusive: 3.16 µM [inhibitor, full curve, poor fit]",

Compound,Potency,"activity, negative = active"
COc1ccc(CN2C(=O)c3cccnc3C2Nc2cc(Cl)ccc2OC)cc1 (stereo not drawn),,inactive: -7.52%
CCN(CC)c1ccc2cc(-c3nc4ccccc4n3C)c(=O)oc2c1,active: 11.2 µM,
CS(=O)(=O)N1N=C(c2ccccc2)CC1c1ccc2c(c1)OCO2 (stereo not drawn),"inconclusive: 22.4 µM [inhibitor, partial curve, poor fit]",
O=C(CSc1ncccn1)N1CCN(C(c2ccccc2)c2ccccc2)CC1,,inactive: -1.08%
CC(=O)Nc1sc(C)c(C)c1C(=O)OCC(=O)Nc1cccc(C)c1,"inconclusive: 15.8 µM [inhibitor, partial curve, poor fit]",
O=C(Nc1nnc(-c2cccs2)o1)c1cccc(F)c1,"inconclusive: 5.62 µM [inhibitor, single point]",
CC(NCCN(C)C)C1CCC2C3CCc4cc(O)ccc4C3CCC12C (stereo not drawn),"inconclusive: 12.6 µM [inhibitor, partial curve, poor fit]",
CCC(=Nc1ccccc1OC)C1=C(O)CC(c2ccccc2)CC1=O (stereo not drawn),"inconclusive: 35.5 µM [inhibitor, single point]",
COCCCNC(=O)/C(C#N)=c1\s/c(=C\c2ccccc2OC(F)F)c(=O)n1CCCOC,"inconclusive: 35.5 µM [inhibitor, single point]",
O=C(Cn1c(=O)oc2ccccc21)NCc1ccccc1Cl,,inactive: -3.67%
CC(C)(C)NC(=S)N/N=C\c1ccc(-c2ccc([N+](=O)[O-])cc2)o1,active: 25.1 µM,
Cc1cc(=O)n2c(C(=O)Nc3ccc(C)c(C)c3)c(C(=O)Nc3ccccc3)sc2n1,"inconclusive: 20 µM [inhibitor, partial curve, poor fit] and inconclusive: 31.6 µM [inhibitor, single point]",
O=C(N/C(=C\c1ccc(Br)cc1)C(=O)N1CCOCC1)c1ccc([N+](=O)[O-])cc1,"inconclusive: 5.01 µM [inhibitor, single point]",
COC(=O)c1ccccc1NC(=O)CSc1nc2sc3c(c2c(=O)[nH]1)CCCC3,,inactive: -4.22%
COc1ccc(NC(=O)c2cc3ccccc3cc2O)cc1,"inconclusive: 20 µM [inhibitor, single point]",
COc1ccc(C(=O)NNC2=Nc3cccc4cccc2c34)cc1,"inconclusive: 35.5 µM [inhibitor, single point]",
CC1=[N+](C)c2c(ccc3cccnc23)C1(C)C,"inconclusive: 35.5 µM [inhibitor, single point]",
Cc1ccc(C(=O)c2cn(Cc3ccc(F)cc3)c3nc(C)ccc3c2=O)cc1,"inconclusive: 12.6 µM [inhibitor, partial curve, poor fit]",
COc1cc(C(=O)NCCOc2ccc(F)cc2)c(Br)c(OC)c1OC,"inconclusive: 11.2 µM [inhibitor, partial curve, poor fit]",
[O-][n+]1cccc2c(Br)cc(Br)c(O)c21,"inconclusive: 35.5 µM [inhibitor, single point]",
CCOC(=O)c1c(C)nc(C)c2c(=O)oc3ccccc3c12,"inconclusive: 3.16 µM [inhibitor, single point]",
COC(=O)C1=C(C)NC(=O)NC1c1ccc(-c2ccccc2Cl)o1 (stereo not drawn),"inconclusive: 35.5 µM [inhibitor, single point]",
